According to US11499197B2, “Prognosis method of multiple myeloma” (CENTRE NATIONAL DE LA RECHERCHE SCIENTIFIQUE, priority 2017, dated 2022):
For at least one compound, name, drawing or mass did not settle the structure.

Test system: AMO1 HMCL
Test: Cell cycle analysis by flow cytometry
Format: cell-based, human
Conditions: AMO1, 4 days co-treatment
Text: FIG. 15 represents graphs showing the effects of the treatments with inhibitors on cell cycle in AMO1 cells. p-value: *<0.05; **<0.01; ***<0.001.
FIG. 29 represents graphs illustrating that Co-treatments differentially affect cell cycle in AMO1 cell line. Cotreatment with Melphalan or Lenalidomide and A) AZD7762; B) OTSSP167; C) Centrinone B; D) XL413. Cell cycle was monitored by flow cytometry after 4 days co-treatments. p-value: *<0.05; **<0.01; ***<0.001.
Cells were culture in 12 wells plate for 4 days. Apoptotic cells were detected using phycoerythrin-conjugated Annexin V (PE-annexin V, BD Pharmingen). For the cell cycle and DNA damage, we used the Apoptosis, DNA damage and cell proliferation kit (BD), following the manufacturer's protocol.

COc1c(Nc2cc(C)[nH]n2)nc(Sc2ccc(S(=O)(=O)Cc3cccc([N+](=O)[O-])c3F)cc2F)nc1N1CCCCC1 [Centrinone-B]
cell cycle arrest on co-treatment with melphalan or lenalidomide: G2/M
